In patent US5798392A, “Sulfonyl fluorides for the treatment of Alzheimer's disease” (The Board of Regents of the University of Texas System, priority 1996, dated 1998):
For at least one compound, name, drawing or mass did not settle the structure.

Sequences of proteins named here, by UniProt entry; tags and fusion partners are left off. Residues count along the entry.
UniProt P06276, 29-602: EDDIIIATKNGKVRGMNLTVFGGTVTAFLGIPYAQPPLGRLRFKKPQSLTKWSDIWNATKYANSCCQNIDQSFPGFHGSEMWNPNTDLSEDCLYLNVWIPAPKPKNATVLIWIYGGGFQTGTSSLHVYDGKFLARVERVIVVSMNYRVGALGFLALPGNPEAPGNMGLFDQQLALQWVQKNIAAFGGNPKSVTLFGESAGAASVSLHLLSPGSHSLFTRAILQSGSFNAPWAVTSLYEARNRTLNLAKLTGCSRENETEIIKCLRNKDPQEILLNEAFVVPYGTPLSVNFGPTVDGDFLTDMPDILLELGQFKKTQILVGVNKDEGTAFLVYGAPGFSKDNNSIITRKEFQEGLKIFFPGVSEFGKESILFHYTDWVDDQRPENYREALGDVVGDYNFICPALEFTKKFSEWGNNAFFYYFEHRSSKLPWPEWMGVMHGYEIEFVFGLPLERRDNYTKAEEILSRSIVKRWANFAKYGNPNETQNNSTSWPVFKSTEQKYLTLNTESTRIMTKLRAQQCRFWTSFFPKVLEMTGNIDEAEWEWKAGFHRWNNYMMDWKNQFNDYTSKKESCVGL

Target: plasma butyrylcholinesterase (Homo sapiens, UniProt P06276)
Assay: Plasma butyrylcholinesterase substrate kinetics
Assay type: biochemical
Settings: butyrylthiocholine substrate, pH 7.4, 25° C

SMILES: CCCC(=O)SCC[N+](C)(C)C [butyrylthiocholine]
- butyrylcholinesterase Vmax: 4.853 (SEM=0.135) ×10^-6 moles/gram of plasma/min
